Where a name gives a salt, the structure may show the parent alone. Where a SMILES comes first, the peptide text is derived from it. [ ]: non-standard residue; d: D form. ξ: configuration not given here. ξV = CC(C)C(N)C(=O)O
System: OATP1B2
Test: Untargeted metabolomics of plasma and DRG, WT vs OATP1B2-deficient mice
Format: in vivo, mouse
[1] = untargeted metabolomics, WT vs OATP1B2-deficient mice, supplement sheet "Figure 5B" (volcano plot)
[2] = untargeted metabolomics, sheet "Figure 5C", WT vs OATP1B2-deficient mice
[3] = untargeted metabolomics, WT vs OATP1B2-deficient mice, supplement sheet "Figure 5B"
[4] = Figure 5B source data (volcano plot), untargeted metabolomics, WT vs OATP1B2-deficient mice, log2 fold change of metabolite level

## O=C1CC(C(=O)O)NC(=O)N1 (centres unmarked) [dihydroorotate]
[1]
  Log2FoldChange: 0.5361

## CN(C)CC(=O)O [dimethylglycine]
[2]
  Log2FoldChange: -0.08927

## CCCCC/C=C\C/C=C\CCCCCCCCCCCC(=O)O [docosadienoate (22:2n6)]
[3]
  Log2FoldChange: 0.111

## O=C(O)CCCCCCCCCCCCCCCCCCCCC(=O)O [docosadioate (C22-DC)]
[1]
  Log2FoldChange: 0.2388

## CC/C=C\C/C=C\C/C=C\C/C=C\C/C=C\C/C=C\CCC(=O)O [docosahexaenoate (DHA; 22:6n3)]
[3]
  Log2FoldChange: -0.074
[2]
  Log2FoldChange: 0.546

## CC/C=C\C/C=C\C/C=C\C/C=C\C/C=C\C/C=C\CCC(=O)NCCO [docosahexaenoyl ethanolamide]
[2]
  Log2FoldChange: 0.189

## CC/C=C\C/C=C\C/C=C\C/C=C\C/C=C\C/C=C\CCC(=O)O[C@H](CC(=O)[O-])C[N+](C)(C)C [docosahexaenoylcarnitine (C22:6)*]
[2]
  Log2FoldChange: 0.3896

## CC/C=C\C/C=C\C/C=C\C/C=C\C/C=C\CCCCCC(=O)O [docosapentaenoate (n3 DPA; 22:5n3)]
[4]
  Log2FoldChange: -0.2345
[2]
  Log2FoldChange: 0.3674

## CCCCC/C=C\C/C=C\C/C=C\C/C=C\C/C=C\CCC(=O)O [docosapentaenoate (n6 DPA; 22:5n6)]
[2]
  Log2FoldChange: 0.6508

## CCC=CCC=CCC=CCCCCCCCCCCCC(=O)O [docosatrienoate (22:3n3)]
[3]
  Log2FoldChange: 0.02857
[2]
  Log2FoldChange: 0.263

## O=C(O)CCCCCCCCCCC(=O)O [dodecanedioate (C12-DC)]
[1]
  Log2FoldChange: 3.021

## NCCc1ccc(O)c(OS(=O)(=O)O)c1 [dopamine 3-O-sulfate]
[1]
  Log2FoldChange: 0.3674

## CC1=NCC[C@@H](C(=O)O)N1 [ectoine]
[1]
  Log2FoldChange: 0.8156

## O=C(O)CCCCCCCCCCCCCCCCCCC(=O)O [eicosanedioate (C20-DC)]
[3]
  Log2FoldChange: 0.2016

## CC/C=C\C/C=C\C/C=C\C/C=C\C/C=C\CCCC(=O)O [eicosapentaenoate (EPA; 20:5n3)]
[3]
  Log2FoldChange: -0.1361

## O=C(O)[C@H]1O[C@@H](Oc2ccc3c(c2)OC[C@H](c2ccc(O)cc2)C3)[C@H](O)[C@@H](O)[C@@H]1O [equol glucuronide]
[1]
  Log2FoldChange: 0.926

## C[N+](C)(C)[C@@H](Cc1c[nH]c(=S)[nH]1)C(=O)[O-] [ergothioneine]
[3]
  Log2FoldChange: -0.074

## CCCCCCCC/C=C\CCCCCCCCCCCC(=O)O [erucate (22:1n9)]
[2]
  Log2FoldChange: -1.218

## OC[C@@H](O)[C@@H](O)CO [erythritol]
[1]
  Log2FoldChange: 0.3896

## O=C(O)[C@H](O)[C@H](O)CO [erythronate*]
[3]
  Log2FoldChange: 0.1375
[2]
  Log2FoldChange: 0.3448

## CCO[C@H]1O[C@H](CO)[C@@H](O)[C@H](O)[C@H]1O [ethyl alpha-glucopyranoside]
[1]
  Log2FoldChange: 0.4222

## CCO[C@@H]1O[C@H](CO)[C@@H](O)[C@H](O)[C@H]1O [ethyl beta-glucopyranoside]
[1]
  Log2FoldChange: 0.4957
[2]
  Log2FoldChange: 0.05658

## CCC(C(=O)O)C(=O)O [ethylmalonate]
[1]
  Log2FoldChange: 0.2265

## COc1cc(/C=C/C(=O)O)ccc1O [ferulate]
mouse, in vivo
  Log2FoldChange: -0.1047

## COc1cc(/C=C/C(=O)O)ccc1OS(=O)(=O)O [ferulic acid 4-sulfate]
[1]
  Log2FoldChange: 0.3219

## Cc1cc2nc3c(=O)[nH]c(=O)nc-3n(C[C@H](O)[C@H](O)[C@H](O)COP(=O)(O)OP(=O)(O)OC[C@H]3O[C@@H](n4cnc5c(N)ncnc54)[C@H](O)[C@@H]3O)c2cc1C [flavin adenine dinucleotide (FAD)]
[1]
  Log2FoldChange: 0.3219
[2]
  Log2FoldChange: -0.3585

## Cc1cc2nc3c(=O)[nH]c(=O)nc-3n(C[C@H](O)[C@H](O)[C@H](O)COP(=O)(O)O)c2cc1C [flavin mononucleotide (FMN)]
[2]
  Log2FoldChange: 1.475

## NC=N[C@@H](CCC(=O)O)C(=O)O [formiminoglutamate]
[1]
  Log2FoldChange: 0.848

## O=C(CO)[C@@H](O)[C@H](O)[C@H](O)CO [fructose]
[1]
  Log2FoldChange: 0.251
[2]
  Log2FoldChange: -0.2345

## N[C@@H](CCCCNCC(=O)[C@@H](O)[C@H](O)[C@H](O)CO)C(=O)O [fructosyllysine]
[3]
  Log2FoldChange: -0.152

## OC[C@@H](O)[C@H](O)[C@H](O)[C@@H](O)CO [galactitol (dulcitol)]
[2]
  Log2FoldChange: 0.111

## NCCCC[C@H](NC(=O)CC[C@H](N)C(=O)O)C(=O)O [gamma-glutamyl-alpha-lysine]
[3]
  Log2FoldChange: -0.1681
[2]
  Log2FoldChange: 0.1763

## N[C@@H](CCCCNC(=O)CC[C@H](N)C(=O)O)C(=O)O [gamma-glutamyl-epsilon-lysine]
[2]
  Log2FoldChange: 0.2869

## NC(=O)NCCC[C@H](NC(=O)CC[C@H](N)C(=O)O)C(=O)O [gamma-glutamylcitrulline*]
[3]
  Log2FoldChange: 0.05658

## N[C@@H](CCC(=O)N[C@@H](CS)C(=O)O)C(=O)O [gamma-glutamylcysteine]
[2]
  Log2FoldChange: 0.275

## NC(=O)CC[C@H](NC(=O)CC[C@H](N)C(=O)O)C(=O)O [gamma-glutamylglutamine]
[2]
  Log2FoldChange: 0.08406

## N[C@@H](CCC(=O)N[C@@H](Cc1c[nH]cn1)C(=O)O)C(=O)O [gamma-glutamylhistidine]
[3]
  Log2FoldChange: -0.1047

## CC[C@H](C)[C@H](NC(=O)CC[C@H](N)C(=O)O)C(=O)O [gamma-glutamylisoleucine*]
[3]
  Log2FoldChange: 0

## CC(C)C[C@H](NC(=O)CC[C@H](N)C(=O)O)C(=O)O [gamma-glutamylleucine]
[3]
  Log2FoldChange: 0.02857
[2]
  Log2FoldChange: 0.251

## N[C@@H](CCC(=O)N[C@@H](Cc1ccccc1)C(=O)O)C(=O)O [gamma-glutamylphenylalanine]
[3]
  Log2FoldChange: 0.1763
[2]
  Log2FoldChange: 0.09761

## C[C@@H](O)[C@H](NC(=O)CC[C@H](N)C(=O)O)C(=O)O [gamma-glutamylthreonine]
[3]
  Log2FoldChange: 0.111
[2]
  Log2FoldChange: -0.1844

## N[C@@H](CCC(=O)N[C@@H](Cc1c[nH]c2ccccc12)C(=O)O)C(=O)O [gamma-glutamyltryptophan]
[1]
  Log2FoldChange: 0.2388
[2]
  Log2FoldChange: 0.251

## N[C@@H](CCC(=O)N[C@@H](Cc1ccc(O)cc1)C(=O)O)C(=O)O [gamma-glutamyltyrosine]
[1]
  Log2FoldChange: 0.275
[2]
  Log2FoldChange: 0.3674

## CC(C)[C@H](NC(=O)CC[C@H](N)C(=O)O)C(=O)O [gamma-glutamylvaline]
[3]
  Log2FoldChange: 0.05658

## O=c1c(-c2ccc(O)cc2)coc2cc(O)cc(O)c12 [genistein]
[4]
  Log2FoldChange: -1.184

## OC[C@H]1OC(O)[C@H](O)[C@@H](O)[C@@H]1O (some centres unmarked) [glucose]
[3]
  Log2FoldChange: 0.09761

## COC(=O)CCC(N)C(=O)O (centres unmarked) [glutamate, gamma-methyl ester]
mouse, in vivo
  Log2FoldChange: 0.2016

## NC(=O)CC[C@H](N)C(=O)O [glutamine]
[3]
  Log2FoldChange: 0.111
[2]
  Log2FoldChange: 0.09761

## O=C(O)CCCC(=O)O [glutarate (C5-DC)]
[1]
  Log2FoldChange: 0.251
[2]
  Log2FoldChange: -0.074

## N[C@@H](CCC(=O)N[C@@H](CS)C(=O)NCC(=O)O)C(=O)O [glutathione, reduced (GSH)]
[2]
  Log2FoldChange: 0.3334

## O=C(O)C(O)CO (centres unmarked) [glycerate]
[3]
  Log2FoldChange: 0.02857
[2]
  Log2FoldChange: 0.02857

## O=P(O)(O)OCC(O)CO (centres unmarked) [glycerol 3-phosphate]
[3]
  Log2FoldChange: 0.1375
[2]
  Log2FoldChange: 0.2388

## NCCOP(=O)(O)OCC(O)CO (centres unmarked) [glycerophosphoethanolamine]
[1]
  Log2FoldChange: 0.6508
[2]
  Log2FoldChange: 0.1763

## O=P(O)(OCC(O)CO)OCC(O)CO (centres unmarked) [glycerophosphoglycerol]
[1]
  Log2FoldChange: 0.2869

## O=P(O)(OC[C@H](O)CO)OC1[C@H](O)[C@H](O)C(O)[C@H](O)[C@H]1O (some centres unmarked) [glycerophosphoinositol*]
[2]
  Log2FoldChange: 0.189

## C[N+](C)(C)CCOP(=O)([O-])OC[C@H](O)CO [glycerophosphorylcholine (GPC)]
[1]
  Log2FoldChange: 0.4222
[2]
  Log2FoldChange: 0.2016

## C[C@H](CCC(=O)NCC(=O)O)[C@H]1CC[C@H]2[C@@H]3[C@H](O)C[C@@H]4C[C@H](O)CC[C@]4(C)[C@H]3C[C@H](O)[C@]12C [glycocholate]
[1]
  Log2FoldChange: 0.3103

## CC[C@H](C)[C@H](NC(=O)CN)C(=O)O [glycylisoleucine] (H-Gly-Ile-OH)
[2]
  Log2FoldChange: 0.263

## CC(C)C[C@H](NC(=O)CN)C(=O)O [glycylleucine]
[2]
  Log2FoldChange: 0.2265

## CC(C)[C@H](NC(=O)CN)C(=O)O [glycylvaline] (H-Gly-[ξV]-OH)
[2]
  Log2FoldChange: 0.4957

## COc1ccccc1OS(=O)(=O)O [guaiacol sulfate]
[3]
  Log2FoldChange: 0.111

## [H]/N=C(/N)NCC(=O)O [guanidinoacetate]
[2]
  Log2FoldChange: 0.2016

## N=C(N)NC(CC(=O)O)C(=O)O (centres unmarked) [guanidinosuccinate]
[1]
  Log2FoldChange: 0.585

## Nc1nc2nc[nH]c2c(=O)[nH]1 [guanine]
[2]
  Log2FoldChange: 0.02857

## Nc1nc2c(ncn2[C@@H]2O[C@H](CO)[C@@H](O)[C@H]2OP(=O)(O)O)c(=O)[nH]1 [guanosine 2'-monophosphate (2'-GMP)*]
[2]
  Log2FoldChange: 0.251

## Nc1nc2c(ncn2[C@@H]2O[C@H](CO)[C@@H](OP(=O)(O)O)[C@H]2O)c(=O)[nH]1 [guanosine 3'-monophosphate (3'-GMP)]
[2]
  Log2FoldChange: 0.111

## Nc1nc2c(ncn2[C@@H]2O[C@H](COP(=O)(O)O)[C@@H](O)[C@H]2O)c(=O)[nH]1 [guanosine 5'-monophosphate (5'-GMP)]
[2]
  Log2FoldChange: 0

## Nc1nc2c(ncn2[C@@H]2O[C@H](CO)[C@@H](O)[C@H]2O)c(=O)[nH]1 [guanosine]
[1]
  Log2FoldChange: 1.599
[2]
  Log2FoldChange: 0.05658

## O=C(O)[C@@H](O)[C@@H](O)[C@H](O)[C@@H](O)CO [gulonate*]
[3]
  Log2FoldChange: 0.2016

## C=CC1=C(C)c2cc3[n-]c(cc4[n-]c(cc5nc(cc1n2)C(C)=C5C=C)c(C)c4CCC(=O)O)c(CCC(=O)O)c3C.[Fe+2] [heme]
[4]
  Log2FoldChange: -0.3401

## CCC=CCC=CCC=CCC=CCC=CCCCCC(=O)O [heneicosapentaenoate (21:5n3)]
[4]
  Log2FoldChange: -0.8365

## O=C(O)CCCCCCCCCCCCCCCC(=O)O [heptadecanedioate (C17-DC)]
[1]
  Log2FoldChange: 0.7312

From article PMC10443802 (JCI Insight, 2023)
